Data as given in PubChem BioAssay AID1508597 (Cure First, 2020)
Test: 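Survival screen with siRNA in ovarian cancer cells derived from patients, with or without rucaparib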 (primary screen). Cells: human ovarian carcinoma lines grown from tumours: OCI-P5x (papillary serous) and OCI-C5x (clear cell). Reagent: siRNA pool against human genes, 1.25 pmol siRNA per well. Timing: 72 h or 96 h, depending on the cell culture. Conditions: rucaparib 20 µM (about IC30) or vehicle, present until read-out. Rucaparib or vehicle: Vehicle. Cell line: OCI-C5x (clear cell). Read-out: 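Luminescent ATP-based viability assay read 72 or 96 h after transfection, depending on culture, given as normalised percent viability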. Direction: viability, normalised: higher = more viable cells remaining. Hit rule: 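a well counts as a hit if its normalised viability is under 80 percent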. Calls: active = viability under 80%; inactive = viability 80% or more.
This is an unselected part of the about 2,100 reagents, under one of the conditions tested. 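Calls flag viability under 80% in either arm, not effects specific to rucaparib; the reference for percent is not stated.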 Some reagents were tested in more than one well and are listed for each. No sequences are given here. The record does not give: the 100% reference.

The opening 3 entries, to show the layout:
Gene,technical replicate,"viability, normalised (%)",activity call
NEK1,1,57.7,active
NEK1,2,57.5,active
NEK1,3,57.7,active

Results, from the start:
Gene,technical replicate,"viability, normalised (%)",activity call
NEK1,1,57.7,active
NEK1,2,57.5,active
NEK1,3,57.7,active
TDRD7,1,48.2,active
TDRD7,2,43.4,active
TDRD7,3,46.6,active
ADAM17,1,48.7,active
ADAM17,2,36.6,active
ADAM17,3,45.2,active
PKN2,1,47.1,active
PKN2,2,56.3,active
PKN2,3,46.7,active
CSNK1A1L,1,74.3,active
CSNK1A1L,2,48.8,active
CSNK1A1L,3,51.5,active
PLCH2,1,32.2,active
PLCH2,2,45.8,active
PLCH2,3,50.8,active
PLCD1,1,45,active
PLCD1,2,41.9,active
PLCD1,3,37.6,active
KIF18A,1,69.1,active
KIF18A,1,66,active
KIF18A,2,37,active
KIF18A,2,53.3,active
KIF18A,3,59.8,active
KIF18A,3,42,active
H2BC12,1,68.6,active
H2BC12,2,55.3,active
H2BC12,3,55.4,active
PIF1,1,46.5,active
PIF1,2,46.2,active
PIF1,3,51.1,active
PRDM10,1,51,active
PRDM10,2,50.8,active
PRDM10,3,44.6,active
DGKG,1,54.2,active
DGKG,2,44.5,active
DGKG,3,58.1,active
PYGO2,1,57.1,active
PYGO2,2,58.8,active
PYGO2,3,57,active
LIG1,1,53,active
LIG1,2,60.9,active
LIG1,3,59.3,active
SCAF11,1,37.1,active
SCAF11,2,45.3,active
SCAF11,3,45.4,active
ELAC2,1,63.6,active
ELAC2,2,49.8,active
ELAC2,3,66.4,active
PRKAA1,1,59.1,active
PRKAA1,2,77.4,active
PRKAA1,3,50.8,active
MED15,1,48.2,active
MED15,2,57.2,active
MED15,3,57.5,active
RIOK2,1,36.5,active
RIOK2,2,39,active
RIOK2,3,46.5,active
CELF1,1,29.8,active
CELF1,2,46.2,active
CELF1,3,23.2,active
LMTK1,1,83.2,inactive
LMTK1,2,50.9,active
LMTK1,3,41.7,active
UBE2N,1,44.5,active
UBE2N,1,40.1,active
UBE2N,2,72.7,active
UBE2N,2,50.6,active
UBE2N,3,56.3,active
UBE2N,3,42.6,active
DPH5,1,29.1,active
DPH5,2,37.2,active
DPH5,3,35,active
